Compound in the assay: Cc1cc(ccc1-c1ccccc1)C(=O)N1CCCN(CC1)C(=O)CCl [compound 10]
As to the kind of experiment: probe-labelled cysteine peptide fold change vs DMSO (competition) (log2 fold change); higher = less target engagement (more negative = stronger competition). The conditions noted are these: THP-1, incubation time: 4 h.

This is one part of the list.
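Further: competitive profiling in live THP-1 cells: cysteine peptides tagged with an iodoacetamide desthiobiotin (IA-DTB) probe, intensity after compound treatment relative to DMSO-treated cells.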

For the target “CNOT1_A5YKK6_420_HAEGQLSFIQHSLINPEIFCFADYPCHTVATDILK (UniProt A5YKK6)”, the “probe-labelled cysteine peptide fold change” value reads like this: (10 µM) 0.0642; (50 µM) 0.0353.
In the same order, the values of “COG6_Q9Y2V7_234_WAQSECR (UniProt Q9Y2V7)” are -0.0733 and -0.125.
The corresponding values for “COMT_P21964_207_DRYLPDTLLLEECGLLR (UniProt P21964)” are 0.0569 and 0.158.
In the same order, the values of “COMMD9_Q9P000_160_IQEDPSLCGDK (UniProt Q9P000)” are -0.0729 and 0.278.
As for “CORO1A_P31146_192+195_DGGLICTSCR (UniProt P31146)”, the “probe-labelled cysteine peptide fold change” value reads like this: (10 µM) -0.144; (50 µM) -0.557.
The corresponding values for “COPG2_Q9UBF2_296_ELAPAVSVLQLFCSSPK (UniProt Q9UBF2)” are 0.112 and 0.0808.
In the same order, the values of “COPB1_P53618_466_GALWILGEYCSTK (UniProt P53618)” are -0.321 and 0.156.
In the same order, the values of “CNOT10_Q9H9A5_665_CLHQAASMIHPK (UniProt Q9H9A5)” are 0.047 and 0.0414.
For the target “CNBP_P62633_122_CYSCGEFGHIQK (UniProt P62633)”, the “probe-labelled cysteine peptide fold change” value (10 µM) stood at 0.0889 and the “probe-labelled cysteine peptide fold change” value (50 µM) was 0.0765.
The corresponding values for “COPA_P53621_41_MCTLIDKFDEHDGPVR (UniProt P53621)” are -0.00586 and -0.0496.
In the same order, the values of “COPG2_Q9UBF2_440_EAGLAHLCEFIEDCEHTVLATK (UniProt Q9UBF2)” are -0.0268 and -0.107.
Consider “CMPK2_Q5EBM0_40_FVLELPDCTLAHFALGADAPGDADAPDPR (UniProt Q5EBM0)”, for which the “probe-labelled cysteine peptide fold change” value is 0.103 (10 µM) and 0.123 (50 µM).
In the same order, the values of “CMPK2_Q5EBM0_243_AVLDLVDQCPK (UniProt Q5EBM0)” are -0.281 and -0.127.
The corresponding values for “COG3_Q96JB2_363_DHCALVR (UniProt Q96JB2)” are -0.12 and -0.0937.
The corresponding values for “COG3_Q96JB2_349+363_ELLLGPSIACTVAELTSQNNRDHCALVR (UniProt Q96JB2)” are -0.652 and 0.0075.
“COQ9_O75208_153_DGSELILHFVTQCNTR (UniProt O75208)”: the “probe-labelled cysteine peptide fold change” value (10 µM) was determined as 0.0842 and the “probe-labelled cysteine peptide fold change” value (50 µM) worked out at 0.187.
For the target COA7_Q96BR5_37_DPDGCYR (UniProt Q96BR5), the “probe-labelled cysteine peptide fold change” value reads like this: (10 µM) -0.00866; (50 µM) 0.0452.
In the same order, the values of “COG6_Q9Y2V7_354_HVTTQGVEENIQEVVGHITEGVCRPLK (UniProt Q9Y2V7)” are 0.0919 and 0.17.
The corresponding values for “CNOT1_A5YKK6_1457_NLTAGMAMITCR (UniProt A5YKK6)” are 0.126 and 0.0884.
The corresponding values for “CORO1A_P31146_195_DGGLICTSCR (UniProt P31146)” are 0.143 and -0.057.
Turning to “COPG2_Q9UBF2_88_MCYLTIK (UniProt Q9UBF2)”, the “probe-labelled cysteine peptide fold change” value is, setting by setting: (10 µM) 0.0809; (50 µM) -0.0402.

These data come from the supplement of paper PMC12067093, “Discovery and optimisation of a covalent ligand for TRIM25 and its application to targeted protein ubiquitination” (Chemical Science, 2025).
